Three molecules from publication doi:10.1101/2023.06.02.543413 can be followed below.

Sequences of proteins named here, by UniProt entry; tags and fusion partners are left off.
UniProt P56524: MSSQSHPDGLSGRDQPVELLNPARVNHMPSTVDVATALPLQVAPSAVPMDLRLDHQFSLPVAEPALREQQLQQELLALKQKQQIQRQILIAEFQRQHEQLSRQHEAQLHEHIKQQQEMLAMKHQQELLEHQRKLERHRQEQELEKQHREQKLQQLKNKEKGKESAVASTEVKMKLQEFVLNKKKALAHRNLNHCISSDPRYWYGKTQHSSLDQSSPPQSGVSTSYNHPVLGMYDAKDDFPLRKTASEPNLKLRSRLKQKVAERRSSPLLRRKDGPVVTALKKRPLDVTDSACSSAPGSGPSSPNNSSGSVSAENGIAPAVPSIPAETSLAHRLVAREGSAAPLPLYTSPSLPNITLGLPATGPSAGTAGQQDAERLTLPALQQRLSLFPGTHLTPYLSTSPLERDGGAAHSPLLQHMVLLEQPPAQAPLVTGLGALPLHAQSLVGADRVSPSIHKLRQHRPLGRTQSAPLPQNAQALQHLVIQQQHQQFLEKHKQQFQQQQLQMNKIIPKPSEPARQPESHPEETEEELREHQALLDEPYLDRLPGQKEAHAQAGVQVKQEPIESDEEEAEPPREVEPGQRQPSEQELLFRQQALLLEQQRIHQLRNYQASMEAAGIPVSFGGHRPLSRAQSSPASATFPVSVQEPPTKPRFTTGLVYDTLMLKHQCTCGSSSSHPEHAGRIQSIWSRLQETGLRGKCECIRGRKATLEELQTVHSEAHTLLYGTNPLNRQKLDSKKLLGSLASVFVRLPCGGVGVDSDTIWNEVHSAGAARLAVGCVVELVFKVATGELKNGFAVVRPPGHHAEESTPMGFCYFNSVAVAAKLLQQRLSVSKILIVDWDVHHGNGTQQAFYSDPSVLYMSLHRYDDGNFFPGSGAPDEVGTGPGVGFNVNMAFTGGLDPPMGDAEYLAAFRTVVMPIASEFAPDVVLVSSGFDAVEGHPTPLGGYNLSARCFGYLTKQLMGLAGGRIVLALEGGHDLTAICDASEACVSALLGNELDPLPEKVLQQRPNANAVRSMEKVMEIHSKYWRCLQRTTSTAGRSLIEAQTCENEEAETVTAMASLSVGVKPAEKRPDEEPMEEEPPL
UniProt P36873: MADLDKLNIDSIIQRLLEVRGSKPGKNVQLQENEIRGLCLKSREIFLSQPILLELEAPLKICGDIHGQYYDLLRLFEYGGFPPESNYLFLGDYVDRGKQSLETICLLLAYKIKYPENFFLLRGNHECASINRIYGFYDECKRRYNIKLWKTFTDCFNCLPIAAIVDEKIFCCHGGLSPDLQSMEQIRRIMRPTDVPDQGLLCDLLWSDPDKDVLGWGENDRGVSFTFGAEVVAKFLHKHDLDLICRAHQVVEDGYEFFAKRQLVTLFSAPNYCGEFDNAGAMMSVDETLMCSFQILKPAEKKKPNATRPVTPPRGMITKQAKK
UniProt P62136: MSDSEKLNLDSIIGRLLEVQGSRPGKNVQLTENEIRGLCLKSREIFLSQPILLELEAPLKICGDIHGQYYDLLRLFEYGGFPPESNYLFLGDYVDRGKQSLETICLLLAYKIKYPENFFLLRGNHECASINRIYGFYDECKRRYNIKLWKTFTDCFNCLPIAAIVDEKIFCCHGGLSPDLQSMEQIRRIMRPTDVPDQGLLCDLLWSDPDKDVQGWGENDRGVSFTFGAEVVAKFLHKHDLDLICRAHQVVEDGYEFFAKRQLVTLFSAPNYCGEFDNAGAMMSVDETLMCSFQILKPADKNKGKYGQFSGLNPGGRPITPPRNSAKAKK

These are yes or no findings as the source states them, for the method shown. In cells and extracts the contact can be indirect. Some entries that bind do so weakly or less than the wild type. For some assays here: Tags and fused reporters may be left off the sequences shown.

Holding throughout (test): co-IP
The target in assay [1] is T1, Flag-GSDMD (Gasdermin D, full length) (human) (UniProt P57764).
T1 sequence: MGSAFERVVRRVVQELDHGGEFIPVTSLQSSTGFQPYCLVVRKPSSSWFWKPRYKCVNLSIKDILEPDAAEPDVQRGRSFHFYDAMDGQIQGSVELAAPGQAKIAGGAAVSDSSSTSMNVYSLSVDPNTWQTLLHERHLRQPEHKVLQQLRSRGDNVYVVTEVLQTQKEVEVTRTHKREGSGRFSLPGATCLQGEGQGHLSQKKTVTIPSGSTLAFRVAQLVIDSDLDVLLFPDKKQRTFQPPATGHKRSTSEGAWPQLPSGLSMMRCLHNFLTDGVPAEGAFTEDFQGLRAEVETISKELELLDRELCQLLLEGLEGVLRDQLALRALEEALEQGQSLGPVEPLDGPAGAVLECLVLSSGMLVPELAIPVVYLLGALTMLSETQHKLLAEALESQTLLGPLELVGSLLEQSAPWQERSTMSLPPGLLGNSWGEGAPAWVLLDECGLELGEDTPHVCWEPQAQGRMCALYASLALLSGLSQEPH

A further assay addresses Flag-HDAC4 (human) (UniProt P56524).
For assay [2], the target named is HDAC4, endogenous in THP-1 cells (human (endogenous in THP-1)) (UniProt P56524).

As for “HA-PP1γ (Protein phosphatase 1 catalytic subunit gamma) (from UniProt P36873 1-323) (enzyme)”, the binding entry (in assay [1]; with Flag-HDAC4 (human)) was “binds” each time.

Turning to “HA-PP1α (Protein phosphatase 1 catalytic subunit alpha) (from UniProt P62136 1-330) (enzyme)”, the binding result (in assay [1]; with Flag-HDAC4 (human)) was “binds” in each case.

B1: GSDMD, endogenous in THP-1 cells (protein, UniProt P57764 1-484)
chain: T1 sequence
For B1, the binding result in assay [2] was “binds”.
